Results as given in the supplement of paper PMC10849652.
The other results are listed elsewhere or left out.

Amino acid sequences for entries named in this document (tags omitted). A change or cut given only in a name is not applied to a line headed by its entry.
UniProt O95628: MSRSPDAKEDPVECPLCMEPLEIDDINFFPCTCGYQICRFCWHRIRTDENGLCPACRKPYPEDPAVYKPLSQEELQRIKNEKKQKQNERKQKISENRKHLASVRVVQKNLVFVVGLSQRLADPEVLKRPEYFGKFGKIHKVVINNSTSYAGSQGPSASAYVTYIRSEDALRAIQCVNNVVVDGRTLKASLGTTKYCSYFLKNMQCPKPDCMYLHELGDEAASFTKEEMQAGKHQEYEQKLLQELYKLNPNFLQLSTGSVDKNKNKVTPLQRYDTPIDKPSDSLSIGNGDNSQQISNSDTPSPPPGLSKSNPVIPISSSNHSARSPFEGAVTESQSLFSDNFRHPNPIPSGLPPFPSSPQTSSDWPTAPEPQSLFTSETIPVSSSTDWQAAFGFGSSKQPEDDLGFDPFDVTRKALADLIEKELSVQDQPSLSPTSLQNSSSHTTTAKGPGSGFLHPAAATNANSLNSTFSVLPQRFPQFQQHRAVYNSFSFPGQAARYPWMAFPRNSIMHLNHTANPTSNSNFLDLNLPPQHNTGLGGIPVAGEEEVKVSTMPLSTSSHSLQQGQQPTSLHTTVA
UniProt Q13057: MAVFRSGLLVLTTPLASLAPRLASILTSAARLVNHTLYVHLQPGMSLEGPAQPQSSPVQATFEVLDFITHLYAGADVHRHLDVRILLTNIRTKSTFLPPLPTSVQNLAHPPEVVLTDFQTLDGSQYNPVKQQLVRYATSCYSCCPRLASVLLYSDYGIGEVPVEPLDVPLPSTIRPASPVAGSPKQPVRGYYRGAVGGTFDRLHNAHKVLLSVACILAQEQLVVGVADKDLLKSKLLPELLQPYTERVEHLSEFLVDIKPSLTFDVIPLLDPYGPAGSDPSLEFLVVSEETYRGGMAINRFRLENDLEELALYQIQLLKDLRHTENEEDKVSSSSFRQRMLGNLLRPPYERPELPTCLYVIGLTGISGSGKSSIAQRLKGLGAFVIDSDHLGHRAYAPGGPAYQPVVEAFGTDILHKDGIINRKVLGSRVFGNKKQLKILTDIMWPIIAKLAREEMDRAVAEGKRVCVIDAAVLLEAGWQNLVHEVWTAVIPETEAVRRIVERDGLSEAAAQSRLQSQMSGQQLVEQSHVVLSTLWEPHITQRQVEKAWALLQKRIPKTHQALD
UniProt Q9H9E3: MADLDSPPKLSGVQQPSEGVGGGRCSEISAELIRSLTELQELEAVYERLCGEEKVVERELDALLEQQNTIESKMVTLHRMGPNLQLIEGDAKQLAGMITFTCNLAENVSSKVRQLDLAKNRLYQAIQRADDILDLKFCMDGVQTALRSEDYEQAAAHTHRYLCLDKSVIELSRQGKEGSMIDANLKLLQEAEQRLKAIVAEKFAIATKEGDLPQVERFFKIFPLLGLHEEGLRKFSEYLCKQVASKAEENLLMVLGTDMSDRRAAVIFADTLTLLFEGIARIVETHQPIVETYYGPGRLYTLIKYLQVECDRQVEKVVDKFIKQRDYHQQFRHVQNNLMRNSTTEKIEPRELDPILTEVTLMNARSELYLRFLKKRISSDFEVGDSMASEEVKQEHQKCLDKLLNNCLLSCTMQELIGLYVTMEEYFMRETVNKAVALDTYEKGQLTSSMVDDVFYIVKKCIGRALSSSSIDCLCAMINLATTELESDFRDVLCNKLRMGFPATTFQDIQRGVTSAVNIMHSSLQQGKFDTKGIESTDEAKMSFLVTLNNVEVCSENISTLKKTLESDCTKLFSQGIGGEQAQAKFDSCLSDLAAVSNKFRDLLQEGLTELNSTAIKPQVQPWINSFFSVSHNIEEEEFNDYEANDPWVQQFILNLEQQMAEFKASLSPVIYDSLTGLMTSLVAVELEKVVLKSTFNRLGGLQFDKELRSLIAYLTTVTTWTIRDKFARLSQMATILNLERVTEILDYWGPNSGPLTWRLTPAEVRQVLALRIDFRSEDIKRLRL
UniProt Q92905, whole entry, looked up: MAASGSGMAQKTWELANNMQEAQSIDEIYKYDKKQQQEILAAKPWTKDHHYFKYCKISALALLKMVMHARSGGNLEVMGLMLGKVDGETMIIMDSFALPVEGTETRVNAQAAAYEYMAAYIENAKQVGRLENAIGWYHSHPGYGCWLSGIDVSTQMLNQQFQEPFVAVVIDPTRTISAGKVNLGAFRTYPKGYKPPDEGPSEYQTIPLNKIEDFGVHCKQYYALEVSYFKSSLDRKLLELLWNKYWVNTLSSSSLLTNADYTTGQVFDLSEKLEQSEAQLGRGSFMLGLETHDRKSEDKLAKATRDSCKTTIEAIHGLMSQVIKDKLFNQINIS
UniProt P23786: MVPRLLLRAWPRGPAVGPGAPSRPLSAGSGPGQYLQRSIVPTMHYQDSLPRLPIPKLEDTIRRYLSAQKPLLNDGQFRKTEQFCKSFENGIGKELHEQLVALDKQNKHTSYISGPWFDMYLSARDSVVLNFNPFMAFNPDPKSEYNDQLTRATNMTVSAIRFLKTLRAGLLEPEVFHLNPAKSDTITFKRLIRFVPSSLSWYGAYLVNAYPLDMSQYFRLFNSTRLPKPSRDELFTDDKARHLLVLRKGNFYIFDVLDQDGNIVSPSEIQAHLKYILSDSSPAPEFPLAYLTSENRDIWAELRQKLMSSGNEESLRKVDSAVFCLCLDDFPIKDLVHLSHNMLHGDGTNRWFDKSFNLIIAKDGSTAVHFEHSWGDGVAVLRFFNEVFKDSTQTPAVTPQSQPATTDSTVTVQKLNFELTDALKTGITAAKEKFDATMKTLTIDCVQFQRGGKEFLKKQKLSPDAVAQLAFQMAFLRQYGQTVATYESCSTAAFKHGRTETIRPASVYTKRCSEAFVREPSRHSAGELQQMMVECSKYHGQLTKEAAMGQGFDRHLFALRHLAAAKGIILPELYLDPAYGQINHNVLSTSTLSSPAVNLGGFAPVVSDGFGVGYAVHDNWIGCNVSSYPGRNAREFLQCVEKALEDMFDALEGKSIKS
UniProt Q8NI60: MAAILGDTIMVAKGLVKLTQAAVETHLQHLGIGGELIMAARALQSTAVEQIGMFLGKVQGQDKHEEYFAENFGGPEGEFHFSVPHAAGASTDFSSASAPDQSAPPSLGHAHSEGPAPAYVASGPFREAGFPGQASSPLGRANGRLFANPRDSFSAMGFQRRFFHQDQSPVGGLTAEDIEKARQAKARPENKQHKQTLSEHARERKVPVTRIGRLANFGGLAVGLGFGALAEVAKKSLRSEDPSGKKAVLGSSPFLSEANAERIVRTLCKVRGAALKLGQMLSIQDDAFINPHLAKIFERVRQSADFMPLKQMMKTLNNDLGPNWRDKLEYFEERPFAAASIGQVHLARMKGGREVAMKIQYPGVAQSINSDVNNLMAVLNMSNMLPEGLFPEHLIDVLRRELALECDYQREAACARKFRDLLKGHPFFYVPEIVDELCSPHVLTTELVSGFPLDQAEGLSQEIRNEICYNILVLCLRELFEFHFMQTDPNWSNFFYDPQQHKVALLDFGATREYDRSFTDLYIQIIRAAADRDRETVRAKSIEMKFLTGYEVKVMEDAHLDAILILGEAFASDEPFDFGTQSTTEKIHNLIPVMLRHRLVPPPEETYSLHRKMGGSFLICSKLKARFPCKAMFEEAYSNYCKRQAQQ
UniProt P39059: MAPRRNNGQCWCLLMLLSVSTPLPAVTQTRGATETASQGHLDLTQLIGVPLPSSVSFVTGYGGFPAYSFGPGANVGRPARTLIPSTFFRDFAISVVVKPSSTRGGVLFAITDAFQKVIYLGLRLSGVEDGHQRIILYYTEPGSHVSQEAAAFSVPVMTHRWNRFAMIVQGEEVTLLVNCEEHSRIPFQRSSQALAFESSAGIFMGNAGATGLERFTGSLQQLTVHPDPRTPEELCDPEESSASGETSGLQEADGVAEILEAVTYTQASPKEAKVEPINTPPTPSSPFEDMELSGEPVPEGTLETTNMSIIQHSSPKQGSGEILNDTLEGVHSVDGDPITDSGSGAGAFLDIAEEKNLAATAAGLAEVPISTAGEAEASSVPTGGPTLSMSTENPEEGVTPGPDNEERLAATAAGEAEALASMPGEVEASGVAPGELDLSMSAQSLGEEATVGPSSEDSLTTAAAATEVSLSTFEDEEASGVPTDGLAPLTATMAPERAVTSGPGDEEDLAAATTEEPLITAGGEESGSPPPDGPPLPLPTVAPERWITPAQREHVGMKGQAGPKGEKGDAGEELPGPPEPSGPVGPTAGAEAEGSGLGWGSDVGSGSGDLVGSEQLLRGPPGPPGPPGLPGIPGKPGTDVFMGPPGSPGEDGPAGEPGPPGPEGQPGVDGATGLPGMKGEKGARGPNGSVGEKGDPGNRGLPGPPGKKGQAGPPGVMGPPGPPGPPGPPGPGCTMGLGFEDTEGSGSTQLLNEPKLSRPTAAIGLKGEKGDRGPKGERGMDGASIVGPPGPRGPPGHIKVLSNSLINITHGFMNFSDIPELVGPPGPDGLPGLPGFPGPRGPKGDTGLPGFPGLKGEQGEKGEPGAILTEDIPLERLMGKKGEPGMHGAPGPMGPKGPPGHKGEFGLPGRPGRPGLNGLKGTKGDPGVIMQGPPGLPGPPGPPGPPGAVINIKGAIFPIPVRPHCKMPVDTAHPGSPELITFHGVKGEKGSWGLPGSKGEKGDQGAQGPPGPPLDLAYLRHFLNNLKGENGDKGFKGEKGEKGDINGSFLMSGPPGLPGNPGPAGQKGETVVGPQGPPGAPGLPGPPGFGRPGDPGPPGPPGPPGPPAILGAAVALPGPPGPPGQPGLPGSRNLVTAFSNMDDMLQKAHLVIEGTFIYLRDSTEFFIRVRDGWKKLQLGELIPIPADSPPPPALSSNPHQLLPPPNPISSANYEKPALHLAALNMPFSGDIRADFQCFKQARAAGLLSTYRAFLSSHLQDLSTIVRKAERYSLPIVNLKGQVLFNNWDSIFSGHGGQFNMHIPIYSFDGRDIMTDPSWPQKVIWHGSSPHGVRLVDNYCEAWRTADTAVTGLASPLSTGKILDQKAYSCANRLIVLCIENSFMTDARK
UniProt P78560: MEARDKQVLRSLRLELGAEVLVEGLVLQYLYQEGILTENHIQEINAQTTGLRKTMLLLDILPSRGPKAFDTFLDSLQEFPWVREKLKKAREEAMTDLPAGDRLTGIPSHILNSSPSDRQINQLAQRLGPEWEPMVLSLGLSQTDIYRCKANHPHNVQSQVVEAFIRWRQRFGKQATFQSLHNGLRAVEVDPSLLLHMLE
UniProt Q9GZQ3, whole entry, looked up: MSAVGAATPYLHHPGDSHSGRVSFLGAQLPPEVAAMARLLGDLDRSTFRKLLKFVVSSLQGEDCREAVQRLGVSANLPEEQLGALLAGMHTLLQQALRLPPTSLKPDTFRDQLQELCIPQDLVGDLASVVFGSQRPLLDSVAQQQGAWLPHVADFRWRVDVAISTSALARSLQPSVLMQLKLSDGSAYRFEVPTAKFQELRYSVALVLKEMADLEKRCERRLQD
UniProt Q9H9Q2: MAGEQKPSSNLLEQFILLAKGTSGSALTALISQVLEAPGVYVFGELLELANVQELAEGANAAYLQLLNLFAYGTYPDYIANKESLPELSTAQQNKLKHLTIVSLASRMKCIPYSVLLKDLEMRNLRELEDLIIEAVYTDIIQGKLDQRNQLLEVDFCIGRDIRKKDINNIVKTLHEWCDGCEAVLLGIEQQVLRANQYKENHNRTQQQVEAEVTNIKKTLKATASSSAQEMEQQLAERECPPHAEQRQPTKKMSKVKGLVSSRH
UniProt Q9UKF6: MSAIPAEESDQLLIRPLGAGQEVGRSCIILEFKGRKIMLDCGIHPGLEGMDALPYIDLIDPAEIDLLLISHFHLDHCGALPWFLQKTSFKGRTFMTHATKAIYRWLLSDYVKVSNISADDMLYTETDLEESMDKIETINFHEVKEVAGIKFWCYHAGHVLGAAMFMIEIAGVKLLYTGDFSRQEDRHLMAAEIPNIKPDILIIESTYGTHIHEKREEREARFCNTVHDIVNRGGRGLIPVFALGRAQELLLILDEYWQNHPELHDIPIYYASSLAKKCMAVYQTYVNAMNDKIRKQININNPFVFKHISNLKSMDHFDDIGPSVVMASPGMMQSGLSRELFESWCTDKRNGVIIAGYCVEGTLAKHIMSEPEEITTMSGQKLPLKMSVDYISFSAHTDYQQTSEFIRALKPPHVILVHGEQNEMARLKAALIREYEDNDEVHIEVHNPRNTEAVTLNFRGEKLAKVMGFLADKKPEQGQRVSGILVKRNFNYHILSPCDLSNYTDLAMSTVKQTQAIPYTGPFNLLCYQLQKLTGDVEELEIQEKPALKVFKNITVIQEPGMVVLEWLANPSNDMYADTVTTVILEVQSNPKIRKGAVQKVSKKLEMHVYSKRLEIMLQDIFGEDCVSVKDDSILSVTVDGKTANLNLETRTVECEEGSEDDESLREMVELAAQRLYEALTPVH
UniProt Q9NYJ1, whole entry, looked up: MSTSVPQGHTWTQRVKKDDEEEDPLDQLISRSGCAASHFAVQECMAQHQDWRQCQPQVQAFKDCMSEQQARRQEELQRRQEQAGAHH

Key:
Assay in all cases: log2 fold change, soluble protein after heating vs DMSO (PISA); higher = thermal stabilisation; K562 lysate, 10 uM; active = over 0.2 and 3.5 SD of the protein, either way, in both replicates (recomputed)
alvocidib = compound: CN1CC[C@H](c2c(O)cc(O)c3c(=O)cc(-c4ccccc4Cl)oc23)[C@H](O)C1 [alvocidib]
Outline: (§1)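 K562 pellets were dounce-homogenised in PBS pH 7.4 with 1 mM MgCl2, and the crude extract at 1 mg/mL protein was treated with 10 μM compound for 30 min. Aliquots were heated for 3 min across 48°C-58°C, pooled, and brought to 0.5% NP-40 at 4°C; soluble protein was the supernatant after 21,000xg for 90 min. Soluble protein was quantified by TMTpro 16plex LC-MS/MS with channel sums equalised, and reported as log2 fold change in thermal stability against DMSO controls, with values from duplicates.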

Tubastatin A = compound: CN1CCc2c(c3ccccc3n2Cc2ccc(C(=O)NO)cc2)C1 [Tubastatin A]
Outline: as §1

[1] = compound: CNC(=O)C1=CC=CC=C1NC2=NC(=NC=C2Cl)NC3=C(C=C(C=C3)N4CCOCC4)OC
Outline: as §1

defactinib = compound: CNC(=O)c1ccc(Nc2ncc(C(F)(F)F)c(NCc3nccnc3N(C)S(C)(=O)=O)n2)cc1 [defactinib]
Outline: as §1

[2] = compound: CNc1nc(-c2ccc3c(N)n[nH]c3c2)cc(N2C[C@@H](C(=O)NC3CCCCC3)CC[C@H]2C)n1
Outline: as §1

encorafenib = compound: COC(=O)N[C@@H](C)CNc1nccc(-c2cn(C(C)C)nc2-c2cc(Cl)cc(NS(C)(=O)=O)c2F)n1 [encorafenib]
Outline: as §1

[3] = compound: COC(=O)[C@H](CCSC)NC(=O)C1=C(C=C(C=C1)NC[C@H](CS)N)C2=CC=CC=C2
Outline: as §1

[4] = compound: COc1cc2nc(-c3cc(F)ccc3O)nc(N[C@@H]3CNC[C@H]3C(C)(C)O)c2cc1OC
Outline: as §1

lapatinib = compound: CS(=O)(=O)CCNCc1ccc(-c2ccc3ncnc(Nc4ccc(OCc5cccc(F)c5)c(Cl)c4)c3c2)o1 [lapatinib]
Outline: as §1

pictilisib = compound: CS(=O)(=O)N1CCN(Cc2cc3nc(-c4cccc5[nH]ncc45)nc(N4CCOCC4)c3s2)CC1 [pictilisib]
Outline: as §1

crizotinib = compound: C[C@@H](Oc1cc(-c2cnn(C3CCNCC3)c2)cnc1N)c1c(Cl)ccc(F)c1Cl [crizotinib]
Outline: as §1

[5] = compound: C[C@H](C1=CC=C(C=C1)C(=O)NC2=C3C=CNC3=NC=C2)N
Outline: as §1

duvelisib = compound: C[C@H](Nc1ncnc2nc[nH]c12)c1cc2cccc(Cl)c2c(=O)n1-c1ccccc1 [duvelisib]
Outline: as §1

gandotinib = compound: Cc1cc(Nc2cc(CN3CCOCC3)c3nc(C)c(Cc4ccc(Cl)cc4F)n3n2)n[nH]1 [gandotinib]
Outline: as §1

tozasertib = compound: Cc1cc(Nc2cc(N3CCN(C)CC3)nc(Sc3ccc(NC(=O)C4CC4)cc3)n2)n[nH]1 [tozasertib]
Outline: as §1

doramapimod = compound: Cc1ccc(-n2nc(C(C)(C)C)cc2NC(=O)Nc2ccc(OCCN3CCOCC3)c3ccccc23)cc1 [doramapimod]
Outline: as §1

bafetinib = compound: Cc1ccc(NC(=O)c2ccc(CN3CC[C@H](N(C)C)C3)c(C(F)(F)F)c2)cc1Nc1nccc(-c2cncnc2)n1 [bafetinib]
Outline: as §1

[6] = compound: Cc1cccc(CC(=O)N2CCc3c2ccc(-c2cn(C)c4ncnc(N)c24)c3F)n1
Outline: as §1

alisertib = compound: COc1cc(Nc2ncc3c(n2)-c2ccc(Cl)cc2C(c2c(F)cccc2OC)=NC3)ccc1C(=O)O [alisertib]
Outline: as §1

gefitinib = compound: COc1cc2ncnc(Nc3ccc(F)c(Cl)c3)c2cc1OCCCN1CCOCC1 [gefitinib]
Outline: as §1

Target | log2 fold change (alvocidib) | log2 fold change (Tubastatin A) | log2 fold change [1] | log2 fold change (defactinib) | log2 fold change [2] | log2 fold change (encorafenib) | log2 fold change [3] | log2 fold change [4] | log2 fold change (lapatinib) | log2 fold change (pictilisib) | log2 fold change (crizotinib) | log2 fold change [5] | log2 fold change (duvelisib) | log2 fold change (gandotinib) | log2 fold change (tozasertib) | log2 fold change (doramapimod) | log2 fold change (bafetinib) | log2 fold change [6] | log2 fold change (alisertib) | log2 fold change (gefitinib)
CNOT4 isoform 9 (UniProt O95628) | inactive: -0.351 | inactive: 0.04 | inactive: -0.087 | inactive: -0.085 | inactive: -0.047 | inactive: 0.037 | inactive: 0.003 | inactive: 0.002 | inactive: -0.006 | inactive: -0.014 | inactive: 0.077 | active: -1.01 | inactive: -0.009 | inactive: 0.298 | inactive: 0.04 | inactive: -0.184 | inactive: -0.031 | inactive: 0.271 | – | –
COASY isoform 2 (UniProt Q13057) | inactive: 0.015 | inactive: -0.124 | inactive: -0.003 | inactive: 0.064 | inactive: -0.023 | inactive: -0.012 | inactive: 0.032 | inactive: -0.025 | inactive: -0.01 | inactive: 0.021 | inactive: -0.084 | inactive: -0.072 | inactive: 0.004 | inactive: 0.009 | inactive: -0.022 | inactive: -0.007 | inactive: -0.043 | inactive: 0.029 | inactive: 0.023 | inactive: -0.005
COG4 (UniProt Q9H9E3) | inactive: 0.028 | inactive: -0.131 | inactive: 0.025 | inactive: 0.029 | inactive: -0.003 | inactive: 0.079 | inactive: 0.011 | inactive: 0.022 | inactive: -0.02 | inactive: -0.164 | inactive: -0.088 | inactive: -0.014 | inactive: 0.022 | inactive: -0.207 | inactive: 0.018 | inactive: 0.026 | inactive: 0.025 | inactive: 0.036 | inactive: 0.016 | inactive: 0.009
COPS5 (UniProt Q92905) | inactive: 0.02 | inactive: 0.016 | inactive: -0.011 | inactive: -0.032 | inactive: 0.012 | inactive: -0.002 | inactive: -0.05 | inactive: 0.008 | inactive: -0.018 | inactive: -0.01 | inactive: -0.008 | inactive: 0.006 | inactive: 0.014 | inactive: -0.007 | inactive: 0.011 | inactive: 0.03 | inactive: 0.014 | inactive: -0.015 | inactive: -0.004 | inactive: 0.025
CPT2 (UniProt P23786) | inactive: -0.015 | inactive: 0.025 | inactive: 0 | inactive: -0.005 | inactive: 0.167 | inactive: -0.017 | inactive: 0.192 | inactive: 0.003 | inactive: -0.054 | inactive: 0.187 | inactive: -0.124 | inactive: -0.021 | inactive: 0.06 | inactive: 0.069 | inactive: 0.036 | inactive: -0.012 | inactive: -0.085 | inactive: -0.06 | inactive: 0.074 | inactive: -0.035
COQ8A (UniProt Q8NI60) | inactive: 0.051 | inactive: -0.06 | inactive: 0.384 | inactive: 0 | inactive: 0.079 | inactive: 0.145 | inactive: -0.009 | inactive: 0.009 | inactive: 0.004 | inactive: 0.025 | inactive: 0.106 | inactive: -0.078 | inactive: -0.095 | inactive: 0.126 | inactive: 0.023 | inactive: -0.059 | inactive: 0.041 | inactive: -0.042 | inactive: -0.023 | inactive: 0.447
CPTP (UniProt Q5TA50) | inactive: -0.057 | inactive: -0.03 | inactive: -0.027 | inactive: 0.067 | inactive: 0.065 | inactive: 0.07 | inactive: 0.118 | – | – | – | inactive: 0.016 | inactive: -0.041 | inactive: -0.055 | inactive: -0.138 | inactive: -0.125 | inactive: 0.03 | – | inactive: 0.073 | inactive: 0.038 | inactive: -0.012
COL15A1 (UniProt P39059) | inactive: -0.036 | inactive: 0.031 | inactive: 0.017 | inactive: 0.027 | inactive: 0.037 | inactive: 0.017 | inactive: 0.005 | inactive: 0.016 | inactive: -0.034 | inactive: -0.025 | inactive: 0.021 | inactive: -0.072 | inactive: -0.018 | inactive: 0.091 | inactive: 0.011 | inactive: -0.014 | inactive: 0.051 | inactive: 0.045 | inactive: -0.063 | inactive: 0.038
CRADD (UniProt P78560) | inactive: 0.093 | inactive: -0.094 | inactive: -0.061 | inactive: 0.096 | inactive: 0.062 | inactive: 0.042 | inactive: 0.064 | inactive: -0.041 | inactive: 0.047 | inactive: -0.031 | inactive: 0 | inactive: -0.004 | inactive: 0.008 | inactive: -0.009 | inactive: 0.037 | inactive: -0.057 | inactive: -0.063 | inactive: 0.164 | inactive: -0.039 | inactive: 0.022
CPPED1 (UniProt Q9BRF8) | inactive: -0.105 | inactive: 0.039 | inactive: -0.049 | inactive: -0.007 | inactive: 0.018 | inactive: 0.012 | inactive: -0.042 | inactive: 0.016 | inactive: -0.019 | inactive: -0.001 | inactive: -0.011 | inactive: -0.169 | inactive: 0.037 | inactive: 0.074 | inactive: 0.021 | inactive: 0.048 | inactive: -0.031 | inactive: 0.101 | inactive: 0.018 | inactive: 0.039
COMMD5 (UniProt Q9GZQ3) | inactive: -0.026 | inactive: 0.04 | inactive: 0.043 | inactive: 0.018 | inactive: 0.026 | inactive: 0.162 | inactive: -0.125 | inactive: 0.01 | inactive: 0.026 | inactive: -0.067 | inactive: -0.017 | inactive: -0.03 | inactive: -0.018 | inactive: -0.011 | inactive: 0.196 | inactive: 0.023 | inactive: 0.014 | inactive: 0.017 | inactive: -0.02 | inactive: -0.044
COL18A1 (UniProt P39060) | inactive: 0.04 | inactive: -0.04 | inactive: -0.016 | inactive: 0.28 | inactive: 0.017 | inactive: 0.008 | inactive: 0.127 | inactive: 0.052 | inactive: -0.017 | inactive: -0.046 | inactive: 0.054 | inactive: -0.007 | inactive: -0.012 | inactive: -0.032 | inactive: -0.06 | inactive: 0.04 | inactive: -0.016 | inactive: -0.017 | inactive: -0.045 | inactive: 0.049
COPS7B isoform 3 (UniProt Q9H9Q2) | inactive: -0.004 | inactive: 0.036 | inactive: -0.005 | inactive: -0.073 | inactive: 0.005 | inactive: -0.004 | inactive: -0.005 | inactive: 0 | inactive: 0.013 | inactive: 0.028 | inactive: 0.006 | inactive: -0.03 | inactive: 0.032 | inactive: 0.008 | inactive: -0.027 | inactive: 0 | inactive: 0.059 | inactive: -0.01 | inactive: -0.002 | inactive: -0.07
CPSF3 (UniProt Q9UKF6) | inactive: 0.029 | inactive: -0.051 | inactive: 0.008 | inactive: 0.009 | inactive: -0.075 | inactive: 0.078 | inactive: -0.055 | inactive: -0.006 | inactive: 0.001 | inactive: 0.003 | inactive: -0.002 | inactive: -0.019 | inactive: 0.008 | inactive: -0.007 | inactive: 0.044 | inactive: 0.03 | inactive: 0.004 | inactive: -0.014 | inactive: 0.009 | inactive: -0.005
CNOT8 (UniProt Q9UFF9) | inactive: 0 | inactive: -0.001 | inactive: -0.013 | inactive: -0.005 | inactive: -0.087 | inactive: 0.035 | inactive: -0.045 | inactive: 0.013 | inactive: 0.079 | inactive: -0.129 | inactive: -0.015 | inactive: -0.12 | inactive: 0.06 | inactive: 0.057 | inactive: 0.017 | inactive: -0.045 | inactive: -0.093 | inactive: 0.081 | inactive: 0.07 | inactive: -0.02
COA4 isoform 2 (UniProt Q9NYJ1) | inactive: 0.15 | inactive: 0.12 | inactive: 0.075 | inactive: 0.121 | inactive: -0.037 | inactive: -0.055 | inactive: -0.012 | inactive: -0.045 | inactive: 0.133 | inactive: 0.03 | inactive: 0.103 | inactive: 0.177 | inactive: 0.046 | inactive: -0.186 | inactive: -0.04 | inactive: -0.092 | inactive: 0.028 | inactive: -0.192 | inactive: 0.088 | inactive: -0.155

Reprinted at random: two entries already listed.
Target | log2 fold change (alvocidib) | log2 fold change (Tubastatin A) | log2 fold change [1] | log2 fold change (defactinib) | log2 fold change [2] | log2 fold change (encorafenib) | log2 fold change [3] | log2 fold change [4] | log2 fold change (lapatinib) | log2 fold change (pictilisib) | log2 fold change (crizotinib) | log2 fold change [5] | log2 fold change (duvelisib) | log2 fold change (gandotinib) | log2 fold change (tozasertib) | log2 fold change (doramapimod) | log2 fold change (bafetinib) | log2 fold change [6] | log2 fold change (alisertib) | log2 fold change (gefitinib)
COPS7B isoform 3 (UniProt Q9H9Q2) | inactive: -0.004 | inactive: 0.036 | inactive: -0.005 | inactive: -0.073 | inactive: 0.005 | inactive: -0.004 | inactive: -0.005 | inactive: 0 | inactive: 0.013 | inactive: 0.028 | inactive: 0.006 | inactive: -0.03 | inactive: 0.032 | inactive: 0.008 | inactive: -0.027 | inactive: 0 | inactive: 0.059 | inactive: -0.01 | inactive: -0.002 | inactive: -0.07
CPT2 (UniProt P23786) | inactive: -0.015 | inactive: 0.025 | inactive: 0 | inactive: -0.005 | inactive: 0.167 | inactive: -0.017 | inactive: 0.192 | inactive: 0.003 | inactive: -0.054 | inactive: 0.187 | inactive: -0.124 | inactive: -0.021 | inactive: 0.06 | inactive: 0.069 | inactive: 0.036 | inactive: -0.012 | inactive: -0.085 | inactive: -0.06 | inactive: 0.074 | inactive: -0.035
